Some peptides are written in HELM: one residue between dots, names in brackets for other building blocks, links after the first $. One purity is given for all peptides; the source may state it once.
Test: general procedure: Fmoc solid-phase peptide synthesis; Rink amide resin; HBTU/HOBt/NMM
Conditions: whole synthesis, RP-HPLC on analytical C18 column, monitored at 214 nm

Substance	final HPLC purity (scale 0.1 mmol) [%]	also measured
PEPTIDE1{[ac].K.K.[AcK].K.M.[am]}|CHEM1{[Succinoyl]}$PEPTIDE1,CHEM1,2:R3-1:R1|PEPTIDE1,CHEM1,5:R3-1:R2$$$V2.0	>95	
PEPTIDE1{[ac].K.K.[AcK].K.M.[am]}|PEPTIDE2{G}|PEPTIDE3{G}|CHEM1{[Suberoyl]}$PEPTIDE1,PEPTIDE2,2:R3-1:R2|PEPTIDE1,PEPTIDE3,5:R3-1:R2|PEPTIDE2,CHEM1,1:R1-1:R1|PEPTIDE3,CHEM1,1:R1-1:R2$$$V2.0	>95	
PEPTIDE1{[ac].K.K.[AcK].K.[am]}|PEPTIDE2{G}|PEPTIDE3{G}|CHEM1{[Suberoyl]}$PEPTIDE1,PEPTIDE2,2:R3-1:R2|PEPTIDE1,PEPTIDE3,5:R3-1:R2|PEPTIDE2,CHEM1,1:R1-1:R1|PEPTIDE3,CHEM1,1:R1-1:R2$$$V2.0		final HPLC purity (scale of the general procedure 0.1 mmol (5, 6), 0.05 mmol (7)): >95%
PEPTIDE1{[ac].K.R.[MyrK].K.T.[am]}|CHEM1{[Suberoyl]}$PEPTIDE1,CHEM1,2:R3-1:R1|PEPTIDE1,CHEM1,5:R3-1:R2$$$V2.0		final HPLC purity (scale 0.05 mmol): >95%

Source: PMC6384901 (Molecules, 2019)
